Experimental data reported in the supplement of paper PMC10849652.
The list shows a part of the results.

Sequences of proteins named here, by UniProt entry; tags and fusion partners are left off. A change or cut given only in a name is not applied to a line headed by its entry.
UniProt Q96GD0: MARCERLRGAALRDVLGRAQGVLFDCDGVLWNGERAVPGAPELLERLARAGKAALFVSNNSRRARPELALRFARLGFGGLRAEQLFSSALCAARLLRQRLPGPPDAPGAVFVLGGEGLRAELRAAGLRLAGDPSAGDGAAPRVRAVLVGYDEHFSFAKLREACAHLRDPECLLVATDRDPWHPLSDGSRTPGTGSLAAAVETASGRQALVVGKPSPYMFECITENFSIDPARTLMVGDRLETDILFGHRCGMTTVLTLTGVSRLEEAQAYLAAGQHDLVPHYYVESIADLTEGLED
UniProt Q7L3T8: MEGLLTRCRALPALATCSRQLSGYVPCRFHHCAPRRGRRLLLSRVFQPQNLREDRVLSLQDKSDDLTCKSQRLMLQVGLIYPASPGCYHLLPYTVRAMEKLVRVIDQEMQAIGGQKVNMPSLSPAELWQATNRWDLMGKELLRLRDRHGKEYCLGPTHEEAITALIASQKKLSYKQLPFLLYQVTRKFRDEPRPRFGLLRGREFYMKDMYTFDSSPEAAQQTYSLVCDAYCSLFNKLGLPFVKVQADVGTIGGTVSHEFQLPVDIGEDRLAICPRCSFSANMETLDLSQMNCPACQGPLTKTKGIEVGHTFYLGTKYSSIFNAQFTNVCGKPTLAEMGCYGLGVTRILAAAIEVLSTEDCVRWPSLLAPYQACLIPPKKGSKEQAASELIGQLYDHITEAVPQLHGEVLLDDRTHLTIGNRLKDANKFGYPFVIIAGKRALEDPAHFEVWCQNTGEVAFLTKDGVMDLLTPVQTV
UniProt P11177, whole entry, looked up: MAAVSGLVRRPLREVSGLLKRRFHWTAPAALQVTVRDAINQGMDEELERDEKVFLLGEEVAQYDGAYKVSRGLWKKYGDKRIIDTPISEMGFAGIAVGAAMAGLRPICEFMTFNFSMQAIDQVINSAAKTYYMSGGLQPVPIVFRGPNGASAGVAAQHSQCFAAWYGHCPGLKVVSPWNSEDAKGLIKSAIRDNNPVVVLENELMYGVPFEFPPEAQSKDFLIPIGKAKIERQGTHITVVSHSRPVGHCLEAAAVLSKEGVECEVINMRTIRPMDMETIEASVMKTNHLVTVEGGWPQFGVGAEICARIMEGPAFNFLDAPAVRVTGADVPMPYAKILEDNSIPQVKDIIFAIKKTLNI
UniProt O00151: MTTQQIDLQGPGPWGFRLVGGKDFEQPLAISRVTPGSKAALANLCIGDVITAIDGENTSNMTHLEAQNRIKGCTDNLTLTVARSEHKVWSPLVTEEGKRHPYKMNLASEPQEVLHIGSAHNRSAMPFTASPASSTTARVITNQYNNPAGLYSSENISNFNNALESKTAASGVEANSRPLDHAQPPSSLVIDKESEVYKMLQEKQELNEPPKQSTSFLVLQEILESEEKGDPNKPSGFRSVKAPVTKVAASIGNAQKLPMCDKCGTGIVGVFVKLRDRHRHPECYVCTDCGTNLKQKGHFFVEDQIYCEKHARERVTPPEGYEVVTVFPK
UniProt Q9H2J4: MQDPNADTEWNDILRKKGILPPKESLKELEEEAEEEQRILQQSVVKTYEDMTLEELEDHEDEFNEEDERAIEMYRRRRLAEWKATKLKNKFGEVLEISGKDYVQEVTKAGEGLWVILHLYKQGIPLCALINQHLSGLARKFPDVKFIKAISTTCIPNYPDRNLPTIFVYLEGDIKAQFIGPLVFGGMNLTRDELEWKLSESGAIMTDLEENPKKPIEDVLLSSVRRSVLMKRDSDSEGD
UniProt A6NDB9: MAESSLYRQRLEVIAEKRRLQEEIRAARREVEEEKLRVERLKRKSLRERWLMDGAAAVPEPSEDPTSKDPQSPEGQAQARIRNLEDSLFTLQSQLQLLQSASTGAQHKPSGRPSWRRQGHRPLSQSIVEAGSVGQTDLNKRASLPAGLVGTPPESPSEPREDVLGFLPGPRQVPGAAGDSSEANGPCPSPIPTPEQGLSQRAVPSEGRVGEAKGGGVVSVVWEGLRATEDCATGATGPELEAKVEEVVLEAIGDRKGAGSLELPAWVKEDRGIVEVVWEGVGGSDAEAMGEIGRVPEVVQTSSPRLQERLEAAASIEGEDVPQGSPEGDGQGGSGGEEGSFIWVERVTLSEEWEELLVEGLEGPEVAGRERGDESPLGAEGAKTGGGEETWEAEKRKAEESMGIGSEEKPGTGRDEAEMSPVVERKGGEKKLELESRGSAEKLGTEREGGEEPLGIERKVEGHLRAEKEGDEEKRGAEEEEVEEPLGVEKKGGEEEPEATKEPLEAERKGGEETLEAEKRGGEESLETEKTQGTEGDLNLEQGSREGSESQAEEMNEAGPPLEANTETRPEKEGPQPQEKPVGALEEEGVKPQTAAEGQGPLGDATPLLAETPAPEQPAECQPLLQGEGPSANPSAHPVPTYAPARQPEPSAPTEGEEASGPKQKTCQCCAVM
UniProt O43933: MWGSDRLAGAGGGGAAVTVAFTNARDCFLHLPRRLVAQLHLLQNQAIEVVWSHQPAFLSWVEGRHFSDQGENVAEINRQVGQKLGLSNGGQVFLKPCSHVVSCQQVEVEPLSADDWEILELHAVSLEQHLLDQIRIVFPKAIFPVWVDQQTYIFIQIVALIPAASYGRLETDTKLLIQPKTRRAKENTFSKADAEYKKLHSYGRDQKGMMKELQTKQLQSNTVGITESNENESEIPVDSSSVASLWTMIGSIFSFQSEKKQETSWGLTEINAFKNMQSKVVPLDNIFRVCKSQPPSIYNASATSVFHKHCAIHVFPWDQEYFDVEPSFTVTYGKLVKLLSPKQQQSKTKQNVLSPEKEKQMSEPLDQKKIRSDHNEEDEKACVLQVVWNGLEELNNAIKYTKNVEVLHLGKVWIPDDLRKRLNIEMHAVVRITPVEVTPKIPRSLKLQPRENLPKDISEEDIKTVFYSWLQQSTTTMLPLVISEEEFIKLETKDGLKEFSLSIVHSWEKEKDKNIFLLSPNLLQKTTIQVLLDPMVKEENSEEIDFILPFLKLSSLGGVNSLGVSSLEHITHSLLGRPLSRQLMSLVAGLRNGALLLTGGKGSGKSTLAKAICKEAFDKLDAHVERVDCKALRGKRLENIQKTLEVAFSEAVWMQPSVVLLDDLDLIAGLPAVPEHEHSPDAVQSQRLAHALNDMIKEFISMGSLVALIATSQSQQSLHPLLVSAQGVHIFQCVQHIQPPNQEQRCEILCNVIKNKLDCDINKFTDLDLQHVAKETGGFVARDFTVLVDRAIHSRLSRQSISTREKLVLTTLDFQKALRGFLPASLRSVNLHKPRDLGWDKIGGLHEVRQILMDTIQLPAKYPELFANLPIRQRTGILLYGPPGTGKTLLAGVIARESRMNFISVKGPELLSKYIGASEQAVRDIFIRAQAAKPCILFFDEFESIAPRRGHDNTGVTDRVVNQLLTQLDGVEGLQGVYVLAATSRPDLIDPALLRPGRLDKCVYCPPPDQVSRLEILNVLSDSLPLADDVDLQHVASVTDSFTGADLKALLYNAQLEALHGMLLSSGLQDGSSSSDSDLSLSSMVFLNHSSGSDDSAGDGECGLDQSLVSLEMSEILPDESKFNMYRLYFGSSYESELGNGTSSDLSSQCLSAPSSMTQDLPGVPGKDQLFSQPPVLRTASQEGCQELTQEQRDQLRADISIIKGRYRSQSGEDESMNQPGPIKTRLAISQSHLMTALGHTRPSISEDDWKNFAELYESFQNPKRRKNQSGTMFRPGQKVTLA
UniProt O00330, whole entry, looked up: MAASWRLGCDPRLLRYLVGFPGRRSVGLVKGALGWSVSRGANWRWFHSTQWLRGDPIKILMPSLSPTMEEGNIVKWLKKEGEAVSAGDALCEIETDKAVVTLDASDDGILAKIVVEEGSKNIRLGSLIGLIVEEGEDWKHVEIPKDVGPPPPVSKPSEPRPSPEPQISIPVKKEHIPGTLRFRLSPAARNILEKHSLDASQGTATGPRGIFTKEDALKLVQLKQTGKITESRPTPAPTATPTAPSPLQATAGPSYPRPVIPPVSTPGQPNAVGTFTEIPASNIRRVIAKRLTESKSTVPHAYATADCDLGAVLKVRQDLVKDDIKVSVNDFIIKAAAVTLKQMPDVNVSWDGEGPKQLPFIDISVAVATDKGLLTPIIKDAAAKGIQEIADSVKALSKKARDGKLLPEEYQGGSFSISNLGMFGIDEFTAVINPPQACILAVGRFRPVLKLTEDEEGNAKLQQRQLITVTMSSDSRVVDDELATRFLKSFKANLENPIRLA
UniProt H7BZJ3: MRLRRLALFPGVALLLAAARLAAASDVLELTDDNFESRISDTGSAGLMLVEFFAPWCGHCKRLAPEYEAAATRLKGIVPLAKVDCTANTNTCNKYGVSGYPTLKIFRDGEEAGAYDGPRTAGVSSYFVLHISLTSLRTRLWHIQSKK
UniProt P22234: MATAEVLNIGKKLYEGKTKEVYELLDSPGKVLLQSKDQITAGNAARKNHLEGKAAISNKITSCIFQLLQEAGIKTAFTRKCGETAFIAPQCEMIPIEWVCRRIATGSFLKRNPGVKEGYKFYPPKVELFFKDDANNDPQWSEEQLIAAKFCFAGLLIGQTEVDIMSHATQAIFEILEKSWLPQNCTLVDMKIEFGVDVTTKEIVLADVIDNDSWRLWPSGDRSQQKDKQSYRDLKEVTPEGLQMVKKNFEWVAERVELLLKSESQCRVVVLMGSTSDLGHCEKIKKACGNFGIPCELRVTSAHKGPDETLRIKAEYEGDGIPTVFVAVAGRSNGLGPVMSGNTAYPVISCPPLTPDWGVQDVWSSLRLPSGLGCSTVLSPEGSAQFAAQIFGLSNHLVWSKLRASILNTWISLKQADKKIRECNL
UniProt Q9BUL8: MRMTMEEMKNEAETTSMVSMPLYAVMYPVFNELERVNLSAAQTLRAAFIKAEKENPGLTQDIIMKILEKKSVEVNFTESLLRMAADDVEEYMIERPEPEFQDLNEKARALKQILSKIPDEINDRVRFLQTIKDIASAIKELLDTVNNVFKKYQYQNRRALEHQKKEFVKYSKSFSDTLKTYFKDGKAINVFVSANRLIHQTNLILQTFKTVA
UniProt P51003: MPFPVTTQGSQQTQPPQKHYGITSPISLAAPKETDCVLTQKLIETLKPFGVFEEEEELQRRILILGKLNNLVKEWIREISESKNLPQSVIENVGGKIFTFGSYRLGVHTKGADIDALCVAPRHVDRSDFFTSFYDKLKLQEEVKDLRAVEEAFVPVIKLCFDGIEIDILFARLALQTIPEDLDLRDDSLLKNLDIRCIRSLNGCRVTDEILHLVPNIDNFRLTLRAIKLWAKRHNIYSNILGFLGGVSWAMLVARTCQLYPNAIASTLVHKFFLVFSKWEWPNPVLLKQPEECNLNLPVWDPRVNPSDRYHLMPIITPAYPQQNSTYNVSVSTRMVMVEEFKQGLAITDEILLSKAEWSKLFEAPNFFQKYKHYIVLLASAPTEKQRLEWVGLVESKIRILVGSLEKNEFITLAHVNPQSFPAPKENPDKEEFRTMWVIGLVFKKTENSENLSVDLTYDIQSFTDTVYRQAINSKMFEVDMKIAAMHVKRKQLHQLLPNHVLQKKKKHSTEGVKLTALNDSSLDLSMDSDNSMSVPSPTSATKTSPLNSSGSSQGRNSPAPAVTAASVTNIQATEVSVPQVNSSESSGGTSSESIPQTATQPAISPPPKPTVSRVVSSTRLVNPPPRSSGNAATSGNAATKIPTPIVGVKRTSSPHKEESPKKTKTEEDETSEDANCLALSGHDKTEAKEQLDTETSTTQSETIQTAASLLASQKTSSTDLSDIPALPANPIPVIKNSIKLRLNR
UniProt Q9BYG5: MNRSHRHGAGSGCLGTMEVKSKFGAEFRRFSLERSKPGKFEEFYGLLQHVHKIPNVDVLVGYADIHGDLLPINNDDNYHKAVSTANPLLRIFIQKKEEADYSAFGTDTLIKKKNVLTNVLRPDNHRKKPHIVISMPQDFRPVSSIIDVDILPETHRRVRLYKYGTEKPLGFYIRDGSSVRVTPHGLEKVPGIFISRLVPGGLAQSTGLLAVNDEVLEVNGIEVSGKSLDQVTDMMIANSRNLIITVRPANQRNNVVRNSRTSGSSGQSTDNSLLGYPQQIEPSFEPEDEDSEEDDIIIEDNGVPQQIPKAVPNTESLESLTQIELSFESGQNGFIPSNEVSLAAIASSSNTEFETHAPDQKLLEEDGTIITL
UniProt Q9UHG3: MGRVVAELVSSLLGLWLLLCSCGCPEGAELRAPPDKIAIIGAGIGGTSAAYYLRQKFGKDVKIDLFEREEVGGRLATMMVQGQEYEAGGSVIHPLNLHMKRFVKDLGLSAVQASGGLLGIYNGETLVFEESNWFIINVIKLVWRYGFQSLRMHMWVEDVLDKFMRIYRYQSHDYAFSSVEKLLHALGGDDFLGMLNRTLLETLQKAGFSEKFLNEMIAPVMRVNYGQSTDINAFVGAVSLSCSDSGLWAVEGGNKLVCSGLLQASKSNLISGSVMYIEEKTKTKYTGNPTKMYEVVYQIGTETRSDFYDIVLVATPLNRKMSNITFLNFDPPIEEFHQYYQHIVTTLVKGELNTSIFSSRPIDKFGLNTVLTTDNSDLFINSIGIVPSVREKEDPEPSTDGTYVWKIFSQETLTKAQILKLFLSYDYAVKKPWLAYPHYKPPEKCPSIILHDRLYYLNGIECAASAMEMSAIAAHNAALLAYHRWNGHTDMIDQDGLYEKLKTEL

Experiments:
Test in all cases: log2 fold change, soluble protein after heating vs DMSO (PISA); higher = thermal stabilisation; K562 cells, 10 uM, 30 min; active = over 0.2 and 3.5 SD of the protein, either way, in both replicates (recomputed)
saracatinib = compound: CN1CCN(CCOc2cc(OC3CCOCC3)c3c(Nc4c(Cl)ccc5c4OCO5)ncnc3c2)CC1 [saracatinib]
Procedure, shortened: (§1)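 Thermal stability values are relative to control samples and come from duplicates. They are expressed as log2 fold changes. For measurement, K562 cells (2×10^6 cells/mL) received 10 μM compound for 30 min, and aliquots were heated for 3 min over 48°C-58°C, pooled, and extracted at 4°C in PBS with 0.5% NP-40. Soluble protein, the supernatant after 21,000xg for 90 min, was quantified by TMTpro 16plex LC-MS/MS with equalised channel sums.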

sotrastaurin = compound: CN1CCN(c2nc(C3=C(c4c[nH]c5ccccc45)C(=O)NC3=O)c3ccccc3n2)CC1 [sotrastaurin]
Procedure, shortened: as §1

alvocidib = compound: CN1CC[C@H](c2c(O)cc(O)c3c(=O)cc(-c4ccccc4Cl)oc23)[C@H](O)C1 [alvocidib]
Procedure, shortened: as §1

Tubastatin A = compound: CN1CCc2c(c3ccccc3n2Cc2ccc(C(=O)NO)cc2)C1 [Tubastatin A]
Procedure, shortened: as §1

[1] = compound: CNC(=O)C1=CC=CC=C1NC2=NC(=NC=C2Cl)NC3=C(C=C(C=C3)N4CCOCC4)OC
Procedure, shortened: as §1

defactinib = compound: CNC(=O)c1ccc(Nc2ncc(C(F)(F)F)c(NCc3nccnc3N(C)S(C)(=O)=O)n2)cc1 [defactinib]
Procedure, shortened: as §1

rucaparib = compound: CNCc1ccc(-c2[nH]c3cc(F)cc4c3c2CCNC4=O)cc1 [rucaparib]
Procedure, shortened: as §1

[2] = compound: CNc1nc(-c2ccc3c(N)n[nH]c3c2)cc(N2C[C@@H](C(=O)NC3CCCCC3)CC[C@H]2C)n1
Procedure, shortened: as §1

encorafenib = compound: COC(=O)N[C@@H](C)CNc1nccc(-c2cn(C(C)C)nc2-c2cc(Cl)cc(NS(C)(=O)=O)c2F)n1 [encorafenib]
Procedure, shortened: as §1

[3] = compound: COC(=O)[C@H](CCSC)NC(=O)C1=C(C=C(C=C1)NC[C@H](CS)N)C2=CC=CC=C2
Procedure, shortened: as §1

[4] = compound: COC1=CC=C(C=C1)CN2C=CC3=C2C=C(C=C3)C(=O)NO
Procedure, shortened: as §1

filanesib = compound: CON(C)C(=O)N1N=C(c2cc(F)ccc2F)S[C@@]1(CCCN)c1ccccc1 [filanesib]
Procedure, shortened: as §1

zotarolimus = compound: CO[C@H]1C[C@@H]2CC[C@@H](C)[C@@](O)(O2)C(=O)C(=O)N2CCCC[C@H]2C(=O)O[C@H]([C@H](C)C[C@@H]2CC[C@H](n3cnnn3)[C@H](OC)C2)CC(=O)[C@H](C)/C=C(\C)[C@@H](O)[C@@H](OC)C(=O)[C@H](C)C[C@H](C)/C=C/C=C/C=C/1C [zotarolimus]
Procedure, shortened: as §1

idasanutlin = compound: COc1cc(C(=O)O)ccc1NC(=O)[C@@H]1N[C@@H](CC(C)(C)C)[C@](C#N)(c2ccc(Cl)cc2F)[C@H]1c1cccc(Cl)c1F [idasanutlin]
Procedure, shortened: as §1

alisertib = compound: COc1cc(Nc2ncc3c(n2)-c2ccc(Cl)cc2C(c2c(F)cccc2OC)=NC3)ccc1C(=O)O [alisertib]
Procedure, shortened: as §1

[5] = compound: COc1cc2nc(-c3cc(F)ccc3O)nc(N[C@@H]3CNC[C@H]3C(C)(C)O)c2cc1OC
Procedure, shortened: as §1

gefitinib = compound: COc1cc2ncnc(Nc3ccc(F)c(Cl)c3)c2cc1OCCCN1CCOCC1 [gefitinib]
Procedure, shortened: as §1

[6] = compound: COc1cccc2cc(-c3nc([C@H]4CC[C@H](C(=O)O)CC4)n4ncnc(N)c34)[nH]c12
Procedure, shortened: as §1

lapatinib = compound: CS(=O)(=O)CCNCc1ccc(-c2ccc3ncnc(Nc4ccc(OCc5cccc(F)c5)c(Cl)c4)c3c2)o1 [lapatinib]
Procedure, shortened: as §1

pictilisib = compound: CS(=O)(=O)N1CCN(Cc2cc3nc(-c4cccc5[nH]ncc45)nc(N4CCOCC4)c3s2)CC1 [pictilisib]
Procedure, shortened: as §1

Measured: log2 fold change

PDXP (UniProt Q96GD0)
inactive: saracatinib 0.005 | sotrastaurin 0.035 | alvocidib 0.01 | Tubastatin A -0.034 | [1] -0.046 | defactinib -0.015 | rucaparib -0.026 | [2] -0.099 | encorafenib -0.03 | [3] 0.026 | [4] -0.01 | filanesib -0.058 | zotarolimus -0.018 | idasanutlin 0.017 | alisertib -0.089 | [5] 0.03 | gefitinib -0.004 | [6] 0.059 | lapatinib -0.03 | pictilisib 0.025

PDZD8 (UniProt Q8NEN9)
inactive: saracatinib 0.058 | sotrastaurin -0.046 | alvocidib -0.06 | Tubastatin A -0.018 | [1] 0.004 | defactinib -0.065 | rucaparib -0.035 | [2] -0.006 | encorafenib -0.006 | [3] -0.016 | [4] -0.043 | filanesib -0.073 | zotarolimus 0 | idasanutlin -0.055 | alisertib 0.013 | [5] 0.03 | gefitinib -0.009 | [6] 0.063 | lapatinib -0.043 | pictilisib 0

PER3 isoform 2 (UniProt P56645)
inactive: saracatinib 0.117 | sotrastaurin -0.008 | alvocidib -0.058 | Tubastatin A 0.053 | [1] -0.047 | defactinib 0.006 | rucaparib 0.06 | [2] -0.074 | encorafenib -0.062 | [3] -0.019 | [4] 0.026 | filanesib -0.084 | zotarolimus -0.021 | idasanutlin 0.005 | alisertib -0.077 | [5] 0.072 | gefitinib 0.016 | [6] -0.015 | lapatinib -0.007 | pictilisib 0.058

PARS2 (UniProt Q7L3T8)
inactive: saracatinib 0.082 | sotrastaurin -0.004 | alvocidib 0.022 | Tubastatin A 0.108 | [1] 0.02 | defactinib -0.036 | rucaparib 0 | [2] -0.037 | encorafenib -0.026 | [3] -0.008 | [4] 0.107 | filanesib 0.007 | zotarolimus 0.025 | idasanutlin 0.022 | alisertib -0.094 | [5] 0.042 | gefitinib -0.019 | [6] -0.027 | lapatinib 0.023 | pictilisib 0.063

PDHB (UniProt P11177)
inactive: saracatinib -0.14 | sotrastaurin -0.099 | alvocidib -0.01 | Tubastatin A 0.125 | [1] -0.013 | defactinib 0.139 | rucaparib 0.047 | [2] 0.17 | encorafenib 0.113 | [3] -0.05 | [4] -0.008 | filanesib 0.05 | zotarolimus 0.055 | idasanutlin 0.013 | alisertib -0.06 | [5] -0.134 | gefitinib -0.063 | [6] -0.177 | lapatinib 0.189 | pictilisib 0.005

PDLIM1 (UniProt O00151)
inactive: saracatinib 0.042 | sotrastaurin 0.015 | alvocidib -0.025 | Tubastatin A -0.01 | [1] -0.016 | defactinib -0.001 | rucaparib -0.009 | [2] -0.024 | encorafenib -0.035 | [3] 0.035 | [4] 0.008 | filanesib -0.009 | zotarolimus 0.008 | idasanutlin 0.007 | alisertib -0.105 | [5] -0.04 | gefitinib -0.008 | [6] 0.009 | lapatinib 0.011 | pictilisib 0.032

PDCL3 (UniProt Q9H2J4)
inactive: saracatinib -0.002 | sotrastaurin 0.021 | alvocidib -0.021 | Tubastatin A 0.005 | [1] -0.002 | defactinib -0.029 | rucaparib -0.057 | [2] -0.034 | encorafenib -0.026 | [3] 0.027 | [4] -0.017 | filanesib -0.023 | zotarolimus 0.003 | idasanutlin -0.048 | alisertib -0.063 | [5] 0.011 | gefitinib 0.011 | [6] 0.019 | lapatinib 0.013 | pictilisib 0.012

PALM3 (UniProt A6NDB9)
inactive: saracatinib -0.026 | sotrastaurin 0.056 | alvocidib 0.087 | Tubastatin A 0.06 | [1] -0.081 | defactinib -0.025 | rucaparib -0.041 | [2] 0.001 | encorafenib 0.006 | [3] 0.025 | [4] 0.06 | filanesib 0.076 | zotarolimus 0.036 | idasanutlin 0.013 | alisertib -0.121 | [5] 0.02 | gefitinib 0.012 | [6] 0.046 | lapatinib 0.045 | pictilisib 0.116

PEX1 (UniProt O43933)
inactive: saracatinib 0.018 | sotrastaurin 0.008 | alvocidib -0.033 | Tubastatin A 0.018 | [1] 0.002 | defactinib -0.046 | rucaparib 0.032 | [2] -0.001 | encorafenib 0.005 | [3] -0.08 | [4] -0.011 | filanesib -0.069 | zotarolimus 0.02 | idasanutlin -0.003 | alisertib -0.022 | [5] 0.023 | gefitinib 0.072 | [6] 0.055 | lapatinib 0.038 | pictilisib 0.061

PDHX (UniProt O00330)
inactive: saracatinib -0.246 | sotrastaurin -0.088 | alvocidib 0.151 | Tubastatin A 0.155 | [1] -0.003 | defactinib 0.236 | rucaparib 0.079 | [2] 0.049 | encorafenib 0.136 | [3] 0.026 | [4] -0.109 | filanesib 0.162 | zotarolimus -0.001 | idasanutlin 0.125 | alisertib -0.08 | [5] -0.095 | gefitinib -0.096 | [6] -0.184 | lapatinib 0.235 | pictilisib -0.088

PDIA3 (UniProt H7BZJ3)
inactive: saracatinib 0.056 | sotrastaurin 0.062 | alvocidib 0.045 | Tubastatin A 0.018 | [1] -0.069 | defactinib 0.099 | rucaparib -0.022 | [2] -0.082 | encorafenib 0.047 | [3] -0.043 | [4] -0.161 | filanesib 0.03 | zotarolimus 0.011 | idasanutlin 0.113 | alisertib -0.072 | [5] -0.081 | gefitinib -0.009 | [6] -0.173 | lapatinib 0.048 | pictilisib -0.224

PAICS (UniProt P22234)
inactive: saracatinib -0.005 | sotrastaurin 0.051 | alvocidib 0.005 | Tubastatin A -0.016 | [1] 0.048 | defactinib 0.001 | rucaparib -0.029 | [2] -0.03 | encorafenib -0.04 | [3] 0.034 | [4] 0.001 | filanesib -0.018 | zotarolimus -0.037 | idasanutlin -0.012 | alisertib -0.047 | [5] 0.03 | gefitinib 0.002 | [6] 0.018 | lapatinib -0.057 | pictilisib 0.034

PDCD10 (UniProt Q9BUL8)
inactive: saracatinib -0.032 | sotrastaurin 0.109 | alvocidib 0.009 | Tubastatin A 0.004 | [1] -0.033 | defactinib -0.038 | rucaparib -0.064 | [2] 0.015 | encorafenib 0 | [3] 0.001 | [4] 0.019 | filanesib -0.085 | zotarolimus 0.013 | idasanutlin -0.066 | alisertib -0.03 | [5] 0.05 | gefitinib -0.034 | [6] 0.088 | lapatinib 0.008 | pictilisib 0.048

PAPOLA (UniProt P51003)
inactive: saracatinib 0.035 | sotrastaurin 0.007 | alvocidib -0.049 | Tubastatin A -0.064 | [1] -0.024 | defactinib -0.06 | rucaparib 0.024 | [2] -0.029 | encorafenib -0.002 | [3] -0.023 | [4] -0.032 | filanesib -0.063 | zotarolimus 0.02 | idasanutlin -0.078 | alisertib -0.044 | [5] -0.002 | gefitinib 0.003 | [6] 0.036 | lapatinib -0.021 | pictilisib 0.077

PARD6B (UniProt Q9BYG5)
inactive: saracatinib 0.037 | sotrastaurin -0.06 | alvocidib -0.306 | Tubastatin A -0.111 | [1] 0.036 | defactinib -0.085 | rucaparib 0.119 | [2] 0.015 | encorafenib -0.024 | [3] -0.205 | [4] 0.037 | filanesib 0.044 | zotarolimus -0.008 | idasanutlin -0.181 | alisertib -0.1 | [5] -0.19 | gefitinib -0.012 | [6] 0.064 | lapatinib 0.035 | pictilisib -0.14

PCYOX1 (UniProt Q9UHG3)
inactive: saracatinib 0.004 | sotrastaurin 0.017 | alvocidib 0.016 | Tubastatin A -0.037 | [1] -0.022 | defactinib 0.001 | rucaparib -0.024 | [2] -0.087 | encorafenib 0.009 | [3] -0.027 | [4] -0.047 | filanesib -0.034 | zotarolimus -0.02 | idasanutlin -0.033 | alisertib -0.038 | [5] 0.015 | gefitinib 0.001 | [6] 0.052 | lapatinib -0.016 | pictilisib -0.014
